Assay results from paper PMC7892883, “Transcription activation by a sliding clamp” (Nature Communications, 2021).

Experiments:
Experiment in all cases: EMSA
Conditions in all cases: heparin 0.1 mg/ml challenge, open complex; EMSA: 0.4 uM gp55, 0.2 uM RNAP, 0.2 uM DNA in 10 mM HEPES pH 7.5, 50 mM KCl, 5% glycerol, 0.1 mg/ml heparin; DNA 20 min at 37 C, heparin 1 min at 22 C; recombinant protein; label: none (gel stained)
[1] = test system: E. coli RNA polymerase core + gp55 R114A
[2] = test system: E. coli RNA polymerase core + gp55 R114X (HLH motif truncated)
[3] = test system: E. coli RNA polymerase core + gp55 wild type

“CTAATAAAGAGCTCAGCACTATTACTGAGAGTATAAATACTCCTGATACTGAAGCAGCCGGACT (double strand) [T4 late promoter EMSA scaffold]”: binds more weakly [1]; binds more weakly [2]; binds [3].

For at least one entry, the source does not settle the construct or the ends of the probe. For part of these data: The comparison behind a weaker result is the experiment's own reference, which may not be listed here. For part of these data: At least one verdict was read from the data and is not stated in words by the source.
